Source: PubChem BioAssay AID1259254 (NCATS, 2017)

Aim: 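Gene knock-downs that lead to re-replication, shown by excess G2 DNA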 (primary screen)
Cells: human HCT116 colorectal cancer cells
Knock-down reagent: single siRNA against human genes
Duration: 3 days
Read-out: 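Nuclei stained with Hoechst and imaged; cell-cycle phase assigned by DNA content; G2 share scaled per plate, non-targeting siRNA 0%, GMNN siRNA 100%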
Scale: G2 robust z-score and G2 cells, % of GMNN control: higher = more G2 cells, more excess DNA replication; raw share of cells in G2: higher = larger share of cells with G2 DNA content
Rule for the call: 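An siRNA counts as active if its G2 robust z-score lies at least 5 MADs above the screen median; here such calls match roughly 38% of GMNN control or more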
This is one part, drawn at random, of about 59,000 reagents. Over the whole deposit, about 1,550 (2.6%) were called active. 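G2 share is only a proxy for re-replication; each gene was hit by three separate siRNAs, and active genes were retested.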 The raw values are shown without normalisation. A number with no mark means an inactive call. Reagents against one gene are numbered here. Not given: the amount of reagent.

target | reagent | G2 robust z-score | G2 cells, % of GMNN control | raw share of cells in G2 (%)
DRG1 | 1 | 0.187 | 4.28 | 7.17
DRG1 | 2 | -0.0991 | 2.27 | 6.24
DRG1 | 3 | 1.02 | 10.1 | 6.53
PABIR1 | 1 | -0.0886 | 2.34 | 5.03
PABIR1 | 2 | 1.41 | 12.9 | 7.18
PABIR1 | 3 | -0.614 | -1.35 | 1.42
ZNF430 | 1 | -0.673 | -1.77 | 2.17
ZNF430 | 2 | 0.275 | 4.91 | 8.13
ZNF430 | 3 | 0.517 | 6.6 | 5.71
PCBD2 | 1 | -1.04 | -4.35 | 2.62
PCBD2 | 2 | 4.2 | 32.5 | 19
PCBD2 | 3 | -0.351 | 0.5 | 4.97
FGFBP2 | 1 | -0.86 | -3.08 | 3.08
FGFBP2 | 2 | -0.333 | 0.622 | 3.64
FGFBP2 | 3 | -0.489 | -0.472 | 2.26
NEDD9 | 1 | -0.469 | -0.333 | 5.34
NEDD9 | 2 | -1.14 | -5.07 | 1.52
NEDD9 | 3 | -1.43 | -7.1 | 2.62
FANCG | 1 | 1.7 | 14.9 | 12.3
FANCG | 2 | 0.745 | 8.21 | 7.09
FANCG | 3 | -0.647 | -1.59 | 2.9
PPP1R18 | 1 | -0.502 | -0.566 | 3.4
PPP1R18 | 2 | -0.481 | -0.416 | 2.82
PPP1R18 | 3 | 0.376 | 5.62 | 4.54
PSMB4 | 1 | 0.672 | 7.7 | 8.24
PSMB4 | 2 | 2.31 | 19.2 | 11.7
PSMB4 | 3 | -0.163 | 1.82 | 4.59
SMCO3 | 1 | 0.656 | 7.58 | 6.55
SMCO3 | 2 | -0.404 | 0.122 | 3.46
SMCO3 | 3 | 6.55 (active) | 49.1 | 19.8
